Measurements published in patent publication US20080305111A1, “Anti-C35 antibodies for treating cancer” (VACCINEX, INC., priority 2006, published 2008).
These are yes or no findings as the source states them, for the method shown. Some results given as binding are weak or reduced against the parent protein; the word gives no strength. One block for each binder: values may come before it.

Legend:
[1] = biological target: T1, C35 (native human C35 as expressed in cells) (human) (UniProt Q9BRT3); test: intracellular flow cytometry, fixed and permeabilized cells, 1 µg antibody labelled with Alexa-647 per 0.5 million cells
T1 sequence: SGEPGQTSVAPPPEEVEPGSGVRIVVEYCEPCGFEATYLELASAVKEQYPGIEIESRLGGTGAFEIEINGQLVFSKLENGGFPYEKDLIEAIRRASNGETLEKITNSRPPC

[2] = biological target: T1, C35 (native human C35 as expressed in cells) (human); test: intracellular flow cytometry on fixed and permeabilised 21MT1 cells, 1 µg antibody
[3] = biological target: T1, C35 (native human C35 as expressed in cells) (human); test: immunoprecipitation from cell lysates and detection
[4] = biological target: T1, C35 (native human C35 as expressed in cells) (human); test: flow cytometry, 50 ng 1F2-Alexa 647 on mitomycin C treated breast tumor cells
[5] = biological target: T1, C35 (native human C35 as expressed in cells) (human); test: flow cytometry, 1F2-Alexa 647 on irradiated 21MT1 breast tumor cells
[6] = biological target: T1, C35 (native human C35 as expressed in cells) (human); test: flow cytometry, 1F2-Alexa 647 on mitomycin C treated breast tumor cells
[7] = biological target: T1, C35 (native human C35 as expressed in cells) (human); test: immunohistochemistry; also immunoprecipitation from cell lysates
[8] = biological target: T1, C35 (native human C35 as expressed in cells) (human); test: flow cytometry, 50 ng 1F2-Alexa 647 on irradiated breast tumor cells
[9] = biological target: T1, C35 (native human C35 as expressed in cells) (human); test: flow cytometry, 50 ng 1F2-Alexa 647 against mouse IgG control-Alexa 647, cells treated with 6 µg/ml mitomycin C for 48 hours, gate Annexin V positive/PI negative (cells labelled 21NT on the sheet)
[10] = biological target: T1, C35 (native human C35 as expressed in cells) (human); test: flow cytometry, 100 ng 1F2-Alexa 647 pre-incubated with PAB buffer, 21MT1 cells 24 hours after 0.5 uM Taxol, gate annexin V positive/PI negative
[11] = biological target: T1, C35 (native human C35 as expressed in cells) (human); test: flow cytometry, Alexa-647 conjugated 1F2 against isotype control, cells dissociated from tumors grown in vivo
[12] = biological target: T1, C35 (native human C35 as expressed in cells) (human); test: flow cytometry, 50 ng 1F2-Alexa 647 against mouse IgG control-Alexa 647, cells irradiated with 300 Gy, gate Annexin V positive/PI negative (cells labelled 21NT on the sheet, 21MT1 in the legend)
[13] = biological target: T1, C35 (native human C35 as expressed in cells) (human); test: Western blot of 21MT1-D tumor cell lysate
[14] = biological target: T1, C35 (native human C35 as expressed in cells) (human); test: Western blot of 21MT1-D tumor cell lysate, MAb163 at 4.4 ug/ml
[15] = biological target: T1, C35 (native human C35 as expressed in cells) (human); test: immunofluorescence (FMAT) on paraformaldehyde-fixed 21MT1-D cells, 0.1 to 3 µg/ml
[16] = biological target: T1, C35 (native human C35 as expressed in cells) (human); test: immunofluorescence on human mammary cell lines
[17] = biological target: T1, C35 (native human C35 as expressed in cells) (human); test: immunoprecipitation from 21MT1-D cell lysate, Western blot with rabbit anti-C35 polyclonal sera
[18] = biological target: T1, C35 (native human C35 as expressed in cells) (human); test: immunofluorescence on paraformaldehyde-fixed cells, MAb163 then anti-human IgG-APC, read on FMAT
[19] = biological target: T1, C35 (native human C35 as expressed in cells) (human); test: Western blot, MAb163 at 4.4 ug/ml

- binding [1]: binds
- binding [2]: binds
B1: MAb 11 (1B3 anti-C35 immunoglobulin variable regions linked to human constant regions) (antibody, V domains shown)
VH: EVQLQESGPSLVKPSQTLSLTCSVTGDSITSGYWNWIRKFPGNKLEYVGYISYSGGTYYNPSLKSRISITRDTSKNHYYLQLNSVTTEDTATYYCARGAYYGGAFFPYFDVWGAGTTVTVSS
VL: DVQITQSPSFLAASPGETITINCRASKYISKHLVWYQEKPGETKKLLIYSGSTLQSGLPSRFSGSGSGTDFTLTISSLEPEDFAMYYCQQHNEYPLTFGAGTKLELK

- binding [3]: binds
B2: 1B3 murine anti-C35 monoclonal antibody (antibody, V domains shown)
VH: EVQLQESGPSLVKPSQTLSLTCSVTGDSITSGYWNWIRKFPGNKLEYVGYISYSGGTYYNPSLKSRISITRDTSKNHYYLQLNSVTTEDTATYYCARGAYYGGAFFPYFDVWGAGTTVTVSS
VL: DVQITQSPSFLAASPGETITINCRASKYISKHLVWYQEKPGETKKLLIYSGSTLQSGLPSRFSGSGSGTDFTLTISSLEPEDFAMYYCQQHNEYPLTFGAGTKLELK

B3: 1F2 murine anti-C35 monoclonal antibody (antibody, V domains shown)
VH: DVQLQESGPGLVKPSQSLSLTCSVTGYSITSGYFWNWIRQFPGNKLEWMGYISYDGSNNSNPSLKNRISFTRDTSKNQFFLKFNSVTTDDSAAYYCTRGTTGFAYWGQGTLVTVSA
VL: QIVLTQSPAIMSASPGEKVTISCSASSSVSYMNWYQQKPGSSPKPWIYHTSNLASGVPARFSGSGSGTSYSLTISSMEAEDAATYYCQQYHSYPPTFGGGTKLEIK
- binding [4]: binds
- binding [5]: binds
- binding [6]: binds
- binding [7]: binds
- binding [8]: binds
- binding [9]: binds
- binding [10]: binds
- binding [11]: binds
- binding [12]: binds

- binding [13]: binds
- binding [14]: binds
- binding [15]: binds
- binding [1]: binds
- binding [16]: binds
- binding [17]: binds
- binding [18]: binds
- binding [19]: binds
- binding [2]: binds
B4: MAb 163 human anti-C35 monoclonal antibody (antibody, V domains shown)
VH: EVQLVESGGGLVKPGGSLRLSCEVSGITFSNAWMSWVRQAPGKGLEWVGRIKSKTDGGTTDYAAPVKGRFTISRDDSKNTLYLQMNSLKTEDTAVYYCSIGYYYDSSFKYGMDVWGQGTTVTVSS
VL: DIQMTQSPATLSASVGDRVTITCRASQSISRWLAWYQQKPGQAPKVLIYKASTLQSGVPSRFSGSGSGTEFSLTINSLQPDDFATYYCQQYYSYLRTFGQGTKLEIK
